According to the supplement of paper PMC12823440, “Inhibitors supercharge kinase turnover through native proteolytic circuits” (Nature, 2025):
This is one part of the list. The calls rarely recur for the same compound in another form.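 In K562 cells expressing nanoluciferase-fused kinases, luminescence was recorded at 4 h intervals between 2 and 18 h, normalized as percent of control with DMSO at 100% and a positive control at 0%. A significant (2 sigma) signal drop marks a time point as decreased. The authors' rule for a hit is not shown and takes in more than the number of time points.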

Chains of the proteins cited; added tags and fusions are not shown. Lines headed by an entry give the natural chain unless they say otherwise; changes in a name come on top.
UniProt P00519, whole entry: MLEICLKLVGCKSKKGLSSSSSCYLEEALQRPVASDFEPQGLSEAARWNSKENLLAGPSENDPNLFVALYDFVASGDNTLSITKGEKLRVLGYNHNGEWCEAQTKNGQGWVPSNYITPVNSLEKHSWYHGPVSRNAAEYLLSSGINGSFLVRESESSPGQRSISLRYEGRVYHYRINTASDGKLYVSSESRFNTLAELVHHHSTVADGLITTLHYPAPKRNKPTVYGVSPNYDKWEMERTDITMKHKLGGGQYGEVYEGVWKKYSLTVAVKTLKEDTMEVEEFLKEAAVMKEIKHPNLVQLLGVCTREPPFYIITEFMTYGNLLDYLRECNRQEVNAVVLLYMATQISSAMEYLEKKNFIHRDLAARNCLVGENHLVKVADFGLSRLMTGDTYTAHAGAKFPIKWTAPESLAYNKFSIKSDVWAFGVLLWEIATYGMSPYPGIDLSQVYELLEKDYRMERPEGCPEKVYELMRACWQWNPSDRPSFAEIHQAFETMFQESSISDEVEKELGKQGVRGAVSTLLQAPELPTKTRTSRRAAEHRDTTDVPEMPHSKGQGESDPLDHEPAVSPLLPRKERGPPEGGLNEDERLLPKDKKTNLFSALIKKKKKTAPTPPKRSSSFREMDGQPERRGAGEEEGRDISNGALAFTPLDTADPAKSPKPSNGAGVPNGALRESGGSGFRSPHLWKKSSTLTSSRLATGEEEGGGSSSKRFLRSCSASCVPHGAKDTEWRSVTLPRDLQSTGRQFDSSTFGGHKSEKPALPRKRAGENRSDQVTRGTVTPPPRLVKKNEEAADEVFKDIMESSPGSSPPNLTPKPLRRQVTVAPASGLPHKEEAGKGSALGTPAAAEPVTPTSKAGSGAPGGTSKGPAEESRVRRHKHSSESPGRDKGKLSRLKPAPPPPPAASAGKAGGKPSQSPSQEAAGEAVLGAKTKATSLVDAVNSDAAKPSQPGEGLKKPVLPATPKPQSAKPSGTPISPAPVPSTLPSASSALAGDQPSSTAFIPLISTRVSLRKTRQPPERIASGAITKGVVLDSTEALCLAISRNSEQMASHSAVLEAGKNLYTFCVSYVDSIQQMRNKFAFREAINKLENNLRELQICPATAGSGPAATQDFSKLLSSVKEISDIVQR
UniProt Q9UM73: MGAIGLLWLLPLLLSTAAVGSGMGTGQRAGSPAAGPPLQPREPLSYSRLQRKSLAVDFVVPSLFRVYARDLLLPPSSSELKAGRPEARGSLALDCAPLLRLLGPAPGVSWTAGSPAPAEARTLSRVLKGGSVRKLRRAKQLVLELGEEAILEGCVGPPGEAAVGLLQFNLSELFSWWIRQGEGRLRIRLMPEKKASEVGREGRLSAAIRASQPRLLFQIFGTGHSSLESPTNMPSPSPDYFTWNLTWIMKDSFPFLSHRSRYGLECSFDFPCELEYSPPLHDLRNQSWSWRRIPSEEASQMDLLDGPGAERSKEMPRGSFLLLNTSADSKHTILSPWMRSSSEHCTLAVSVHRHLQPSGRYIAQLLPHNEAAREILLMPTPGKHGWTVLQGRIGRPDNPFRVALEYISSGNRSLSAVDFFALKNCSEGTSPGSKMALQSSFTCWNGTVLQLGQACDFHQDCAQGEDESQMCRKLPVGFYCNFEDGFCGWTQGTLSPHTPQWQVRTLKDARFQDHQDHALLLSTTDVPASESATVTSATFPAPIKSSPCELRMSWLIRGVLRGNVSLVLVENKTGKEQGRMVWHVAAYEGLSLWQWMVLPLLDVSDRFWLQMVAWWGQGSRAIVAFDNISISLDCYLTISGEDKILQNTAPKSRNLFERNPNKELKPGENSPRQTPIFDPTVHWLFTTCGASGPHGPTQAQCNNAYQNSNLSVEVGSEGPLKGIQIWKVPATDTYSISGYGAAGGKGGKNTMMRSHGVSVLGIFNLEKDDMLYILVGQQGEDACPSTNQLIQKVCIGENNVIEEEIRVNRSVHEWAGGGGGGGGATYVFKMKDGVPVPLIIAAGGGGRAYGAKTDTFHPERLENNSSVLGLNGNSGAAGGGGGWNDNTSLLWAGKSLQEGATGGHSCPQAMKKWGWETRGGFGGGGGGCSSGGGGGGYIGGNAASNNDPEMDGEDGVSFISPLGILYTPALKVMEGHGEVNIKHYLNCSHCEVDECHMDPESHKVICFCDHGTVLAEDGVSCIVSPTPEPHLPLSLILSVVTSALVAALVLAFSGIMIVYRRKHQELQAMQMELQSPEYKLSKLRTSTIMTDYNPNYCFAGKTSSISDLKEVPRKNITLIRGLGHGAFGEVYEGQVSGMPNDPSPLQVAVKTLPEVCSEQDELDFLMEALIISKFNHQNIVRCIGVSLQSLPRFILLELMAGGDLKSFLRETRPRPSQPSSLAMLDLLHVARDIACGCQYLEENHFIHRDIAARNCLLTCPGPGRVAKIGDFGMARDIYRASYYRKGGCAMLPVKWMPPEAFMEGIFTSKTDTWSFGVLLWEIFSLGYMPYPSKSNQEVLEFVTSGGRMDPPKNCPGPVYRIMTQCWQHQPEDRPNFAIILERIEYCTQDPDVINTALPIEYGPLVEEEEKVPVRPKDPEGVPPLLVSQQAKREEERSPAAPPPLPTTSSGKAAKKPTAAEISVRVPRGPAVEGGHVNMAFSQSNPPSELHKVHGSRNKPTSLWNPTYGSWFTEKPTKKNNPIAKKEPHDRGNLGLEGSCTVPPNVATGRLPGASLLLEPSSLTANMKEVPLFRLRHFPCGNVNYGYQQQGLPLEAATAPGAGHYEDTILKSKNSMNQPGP
UniProt O14965: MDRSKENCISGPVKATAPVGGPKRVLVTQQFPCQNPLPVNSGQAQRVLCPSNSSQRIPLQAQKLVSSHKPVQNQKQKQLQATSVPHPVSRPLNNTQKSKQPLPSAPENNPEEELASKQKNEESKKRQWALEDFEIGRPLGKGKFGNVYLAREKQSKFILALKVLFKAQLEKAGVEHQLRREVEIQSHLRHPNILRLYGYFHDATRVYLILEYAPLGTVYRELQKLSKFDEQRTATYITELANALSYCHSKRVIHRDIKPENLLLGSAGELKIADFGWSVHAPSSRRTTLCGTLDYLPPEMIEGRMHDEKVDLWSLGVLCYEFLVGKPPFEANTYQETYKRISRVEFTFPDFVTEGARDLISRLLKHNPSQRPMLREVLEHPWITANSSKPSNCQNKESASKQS
UniProt Q96GD4, whole entry: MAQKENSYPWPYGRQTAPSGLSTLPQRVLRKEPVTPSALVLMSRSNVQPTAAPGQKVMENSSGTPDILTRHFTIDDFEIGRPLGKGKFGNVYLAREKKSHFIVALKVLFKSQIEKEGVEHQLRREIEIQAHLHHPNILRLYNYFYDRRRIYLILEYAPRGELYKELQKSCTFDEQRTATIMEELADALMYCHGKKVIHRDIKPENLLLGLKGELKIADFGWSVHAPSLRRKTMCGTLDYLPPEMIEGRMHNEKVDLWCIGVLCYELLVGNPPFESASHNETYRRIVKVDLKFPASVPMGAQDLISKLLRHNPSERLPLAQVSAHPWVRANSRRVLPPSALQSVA
UniProt Q9UQB9: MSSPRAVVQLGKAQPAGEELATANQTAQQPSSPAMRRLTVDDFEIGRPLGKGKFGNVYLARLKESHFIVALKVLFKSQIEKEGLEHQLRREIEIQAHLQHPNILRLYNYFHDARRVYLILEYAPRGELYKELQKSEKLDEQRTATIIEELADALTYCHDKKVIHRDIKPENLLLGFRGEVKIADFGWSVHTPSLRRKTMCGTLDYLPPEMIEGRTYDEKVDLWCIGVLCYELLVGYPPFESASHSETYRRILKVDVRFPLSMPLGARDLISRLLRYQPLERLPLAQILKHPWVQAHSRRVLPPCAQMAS
UniProt P51451: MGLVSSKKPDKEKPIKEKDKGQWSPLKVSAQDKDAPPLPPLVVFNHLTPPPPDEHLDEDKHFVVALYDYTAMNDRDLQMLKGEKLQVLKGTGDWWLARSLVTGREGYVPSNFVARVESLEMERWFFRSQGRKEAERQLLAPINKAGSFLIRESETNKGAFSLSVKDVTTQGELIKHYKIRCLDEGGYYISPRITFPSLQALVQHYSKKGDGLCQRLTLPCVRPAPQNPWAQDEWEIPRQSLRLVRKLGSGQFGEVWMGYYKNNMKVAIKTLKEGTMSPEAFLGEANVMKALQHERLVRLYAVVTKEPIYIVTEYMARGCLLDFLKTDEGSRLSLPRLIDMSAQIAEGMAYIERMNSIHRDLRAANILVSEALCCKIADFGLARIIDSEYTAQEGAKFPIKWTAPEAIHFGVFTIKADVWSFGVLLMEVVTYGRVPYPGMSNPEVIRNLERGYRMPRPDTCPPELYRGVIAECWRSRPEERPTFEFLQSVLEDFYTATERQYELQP
UniProt P51813: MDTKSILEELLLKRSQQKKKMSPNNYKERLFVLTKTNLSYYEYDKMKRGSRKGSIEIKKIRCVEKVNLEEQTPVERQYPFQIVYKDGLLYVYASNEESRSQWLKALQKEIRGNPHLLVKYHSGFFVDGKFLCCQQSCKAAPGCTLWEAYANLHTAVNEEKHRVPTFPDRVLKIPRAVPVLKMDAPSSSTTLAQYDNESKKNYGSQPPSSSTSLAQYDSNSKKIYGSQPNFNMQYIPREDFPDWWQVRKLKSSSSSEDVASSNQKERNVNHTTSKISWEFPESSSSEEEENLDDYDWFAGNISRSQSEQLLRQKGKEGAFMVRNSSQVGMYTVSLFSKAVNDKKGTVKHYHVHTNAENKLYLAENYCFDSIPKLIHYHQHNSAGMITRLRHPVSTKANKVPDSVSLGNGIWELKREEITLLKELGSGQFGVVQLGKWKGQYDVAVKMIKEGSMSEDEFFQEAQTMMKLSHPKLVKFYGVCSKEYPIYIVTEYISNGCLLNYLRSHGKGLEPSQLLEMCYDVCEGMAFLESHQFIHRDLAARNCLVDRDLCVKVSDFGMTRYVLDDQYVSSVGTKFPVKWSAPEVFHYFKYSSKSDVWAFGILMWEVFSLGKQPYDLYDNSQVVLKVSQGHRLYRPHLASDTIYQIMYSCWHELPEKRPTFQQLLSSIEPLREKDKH
UniProt P15056, whole entry, looked up: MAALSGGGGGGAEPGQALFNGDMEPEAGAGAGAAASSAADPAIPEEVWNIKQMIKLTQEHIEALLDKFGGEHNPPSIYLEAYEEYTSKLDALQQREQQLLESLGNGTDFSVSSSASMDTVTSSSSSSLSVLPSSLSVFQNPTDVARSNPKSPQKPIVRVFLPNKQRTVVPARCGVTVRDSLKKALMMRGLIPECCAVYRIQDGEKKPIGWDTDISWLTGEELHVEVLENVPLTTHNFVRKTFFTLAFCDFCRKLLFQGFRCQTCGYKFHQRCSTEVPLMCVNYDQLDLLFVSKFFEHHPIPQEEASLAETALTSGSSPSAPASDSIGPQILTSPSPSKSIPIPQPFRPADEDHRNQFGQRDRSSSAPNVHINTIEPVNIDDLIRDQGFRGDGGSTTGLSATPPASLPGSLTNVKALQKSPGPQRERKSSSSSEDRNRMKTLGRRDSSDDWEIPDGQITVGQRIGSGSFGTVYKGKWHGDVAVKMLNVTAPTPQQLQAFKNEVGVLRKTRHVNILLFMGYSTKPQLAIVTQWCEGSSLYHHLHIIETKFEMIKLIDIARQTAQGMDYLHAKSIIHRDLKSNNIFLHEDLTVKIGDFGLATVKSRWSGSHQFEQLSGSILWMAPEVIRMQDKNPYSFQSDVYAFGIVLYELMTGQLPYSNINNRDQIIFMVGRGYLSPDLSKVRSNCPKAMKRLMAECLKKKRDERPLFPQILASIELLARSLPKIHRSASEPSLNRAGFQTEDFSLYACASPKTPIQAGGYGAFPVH
UniProt Q9UQM7, whole entry: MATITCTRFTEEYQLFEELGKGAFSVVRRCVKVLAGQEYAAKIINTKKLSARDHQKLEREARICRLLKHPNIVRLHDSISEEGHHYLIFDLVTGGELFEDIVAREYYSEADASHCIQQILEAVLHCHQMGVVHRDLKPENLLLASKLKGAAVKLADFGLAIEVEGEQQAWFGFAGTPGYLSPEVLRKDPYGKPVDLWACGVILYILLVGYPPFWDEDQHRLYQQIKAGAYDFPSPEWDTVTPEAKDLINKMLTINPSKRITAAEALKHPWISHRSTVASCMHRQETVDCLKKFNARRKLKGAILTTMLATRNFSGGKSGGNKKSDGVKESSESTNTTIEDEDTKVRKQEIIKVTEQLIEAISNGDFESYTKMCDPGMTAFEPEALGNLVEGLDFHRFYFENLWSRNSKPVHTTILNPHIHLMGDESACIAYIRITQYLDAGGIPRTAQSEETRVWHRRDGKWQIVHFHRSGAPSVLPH
UniProt Q00534, whole entry: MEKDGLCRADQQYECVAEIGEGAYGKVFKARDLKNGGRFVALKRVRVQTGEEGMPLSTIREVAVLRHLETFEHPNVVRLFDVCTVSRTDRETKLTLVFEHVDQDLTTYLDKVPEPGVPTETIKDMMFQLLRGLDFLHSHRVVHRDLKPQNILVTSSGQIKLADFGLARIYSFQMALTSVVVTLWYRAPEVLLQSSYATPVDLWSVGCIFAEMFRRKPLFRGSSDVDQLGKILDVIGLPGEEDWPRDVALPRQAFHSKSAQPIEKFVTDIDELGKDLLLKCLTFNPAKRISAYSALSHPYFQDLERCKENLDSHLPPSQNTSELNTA

Key:
Experiment in all cases: kinase-Nluc reporter destabilization hit call (1 = scored as downregulated) (binary); higher = compound decreases kinase abundance
Settings in all cases: K562; 2-18 h
ABL1 = ABL1 (UniProt P00519)
AKT1 = AKT1 (UniProt P31749)
ALK = ALK (UniProt Q9UM73)
ARAF = ARAF (UniProt P10398)
AURKA = AURKA (UniProt O14965)
AURKB = AURKB (UniProt Q96GD4)
AURKC = AURKC (UniProt Q9UQB9)
BLK = BLK (UniProt P51451)
BMX = BMX (UniProt P51813)
BRAF = BRAF (UniProt P15056)
BRAF_V600E = tested on: BRAF_V600E
BTK = BTK (UniProt Q06187)
CAMK2A = CAMK2A (UniProt Q9UQM7)
CAMK2G = CAMK2G (UniProt Q13555)
CDK10 = CDK10 (UniProt Q15131)
CDK2 = CDK2 (UniProt P24941)
CDK3 = CDK3 (UniProt Q00526)
CDK4 = CDK4 (UniProt P11802)
CDK5 = CDK5 (UniProt Q00535)
CDK6 = CDK6 (UniProt Q00534)

Measured: kinase-Nluc reporter destabilization hit call

C=CC(=O)Nc1ccc2ncnc(Nc3cccc(Br)c3)c2c1 (10 µM)
inactive: ABL1 = 0 | AKT1 = 0 | ALK 0 | ARAF 0 | AURKA 0 | AURKB 0 | AURKC 0 | BLK 0 | BMX 0 | BRAF 0 | BRAF_V600E 0 | BTK 0 | CAMK2A 0 | CAMK2G 0 | CDK10 = 0 | CDK2 = 0 | CDK3 = 0 | CDK4 = 0 | CDK5 = 0 | CDK6 = 0

CCN(CCCOc1ccc2c(Nc3cc(CC(=O)Nc4cccc(F)c4)[nH]n3)ncnc2c1)CCOP(=O)(O)O [Barasertib] (10 µM)
inactive: ABL1 = 0 | AKT1 = 0 | ALK 0 | ARAF 0 | AURKA 0 | AURKB 0 | AURKC 0 | BLK 0 | BMX 0 | BRAF 0 | BRAF_V600E 0 | BTK 0 | CAMK2A 0 | CAMK2G 0 | CDK10 = 0 | CDK2 = 0 | CDK3 = 0 | CDK4 = 0 | CDK6 = 0

CCN1CCN(Cc2ccc(C(=O)Nc3ccc(C)c(Oc4ccc5c(c4)CC(=O)N5)c3)cc2C(F)(F)F)CC1 (2.5 µM)
inactive: ABL1 = 0 | AKT1 = 0 | ALK 0 | ARAF 0 | AURKA 0 | AURKB 0 | AURKC 0 | BLK 0 | BMX 0 | BRAF 0 | BRAF_V600E 0 | BTK 0 | CAMK2A 0 | CAMK2G 0 | CDK10 = 0 | CDK2 = 0 | CDK3 = 0 | CDK4 = 0 | CDK5 = 0 | CDK6 = 0

Cc1ccc(NC(=O)Nc2nnc(Sc3ncnc4cc(OCCCN5CCOCC5)ccc34)s2)cc1 (10 µM)
inactive: ABL1 = 0 | AKT1 = 0 | ALK 0 | ARAF 0 | AURKA 0 | AURKB 0 | AURKC 0 | BLK 0 | BMX 0 | BRAF 0 | BRAF_V600E 0 | BTK 0 | CAMK2A 0 | CAMK2G 0 | CDK10 = 0 | CDK2 = 0 | CDK3 = 0 | CDK4 = 0 | CDK5 = 0 | CDK6 = 0

CCc1nc(-c2cccc(C)c2)c(-c2ccnc(NC(=O)c3ccccc3)c2)s1 (10 µM)
inactive: ABL1 = 0 | AKT1 = 0 | ALK 0 | ARAF 0 | AURKA 0 | AURKB 0 | AURKC 0 | BLK 0 | BMX 0 | BRAF 0 | BRAF_V600E 0 | CAMK2A 0 | CAMK2G 0 | CDK10 = 0 | CDK2 = 0 | CDK3 = 0 | CDK4 = 0 | CDK5 = 0 | CDK6 = 0

COc1ccc(COc2ccc(Cc3cnc(N)nc3N)cc2OC)cc1 (10 µM)
inactive: ABL1 = 0 | AKT1 = 0 | ALK 0 | ARAF 0 | AURKA 0 | AURKB 0 | AURKC 0 | BLK 0 | BMX 0 | BRAF 0 | BRAF_V600E 0 | BTK 0 | CAMK2A 0 | CAMK2G 0 | CDK10 = 0 | CDK3 = 0 | CDK4 = 0 | CDK5 = 0 | CDK6 = 0

Cc1ncc(-c2ccnc(Nc3ccc(S(C)(=O)=O)cc3)n2)n1C(C)C (2.5 µM)
inactive: ABL1 = 0 | AKT1 = 0 | ALK 0 | ARAF 0 | AURKA 0 | AURKB 0 | AURKC 0 | BLK 0 | BMX 0 | BRAF 0 | BRAF_V600E 0 | BTK 0 | CAMK2A 0 | CAMK2G 0 | CDK10 = 0 | CDK3 = 0 | CDK4 = 0 | CDK5 = 0 | CDK6 = 0

Random excerpt: two compounds from above.
C=CC(=O)Nc1ccc2ncnc(Nc3cccc(Br)c3)c2c1 (10 µM)
inactive: ABL1 = 0 | AKT1 = 0 | ALK 0 | ARAF 0 | AURKA 0 | AURKB 0 | AURKC 0 | BLK 0 | BMX 0 | BRAF 0 | BRAF_V600E 0 | BTK 0 | CAMK2A 0 | CAMK2G 0 | CDK10 = 0 | CDK2 = 0 | CDK3 = 0 | CDK4 = 0 | CDK5 = 0 | CDK6 = 0

CCN(CCCOc1ccc2c(Nc3cc(CC(=O)Nc4cccc(F)c4)[nH]n3)ncnc2c1)CCOP(=O)(O)O [Barasertib] (10 µM)
inactive: ABL1 = 0 | AKT1 = 0 | ALK 0 | ARAF 0 | AURKA 0 | AURKB 0 | AURKC 0 | BLK 0 | BMX 0 | BRAF 0 | BRAF_V600E 0 | BTK 0 | CAMK2A 0 | CAMK2G 0 | CDK10 = 0 | CDK2 = 0 | CDK3 = 0 | CDK4 = 0 | CDK6 = 0

The list goes on.

CCN1C(=O)N(c2c(F)c(OC)cc(OC)c2F)Cc2cnc3[nH]c(CN4CCOCC4)cc3c21 [Pemigatinib] (10 µM)
inactive: ABL1 = 0 | AKT1 = 0 | ALK 0 | ARAF 0 | AURKA 0 | AURKB 0 | AURKC 0 | BLK 0 | BMX 0 | BRAF 0 | BRAF_V600E 0 | BTK 0 | CAMK2A 0 | CAMK2G 0 | CDK10 = 0 | CDK2 = 0 | CDK3 = 0 | CDK4 = 0 | CDK5 = 0 | CDK6 = 0

COc1cc2ncnc(Nc3cccc(O)c3)c2cc1OC (10 µM)
inactive: ABL1 = 0 | AKT1 = 0 | ALK 0 | ARAF 0 | AURKA 0 | AURKB 0 | AURKC 0 | BLK 0 | BMX 0 | BRAF 0 | BRAF_V600E 0 | BTK 0 | CAMK2A 0 | CAMK2G 0 | CDK10 = 0 | CDK3 = 0 | CDK4 = 0 | CDK5 = 0 | CDK6 = 0

Cc1cccc([C@@H](CO)NC(=O)[C@@H](C)N2Cc3ccc(-c4nc(NC5CCOCC5)ncc4Cl)cc3C2=O)c1 [ERK1/2 inhibitor 1] (10 µM)
inactive: ABL1 = 0 | AKT1 = 0 | ALK 0 | ARAF 0 | AURKA 0 | AURKB 0 | AURKC 0 | BLK 0 | BMX 0 | BRAF 0 | BTK 0 | CAMK2A 0 | CAMK2G 0 | CDK10 = 0 | CDK2 = 0 | CDK3 = 0 | CDK4 = 0 | CDK5 = 0 | CDK6 = 0
